The assay addresses GIGANTEA tagged with HA (GI-HA) (Arabidopsis thaliana) (UniProt Q9SQI2). As to the kind of experiment: co-IP.

By UniProt entry, the sequences of proteins in these tests, tags left out. Where a name states a change or a piece, a line headed by the entry shows the natural chain unless it says otherwise.
UniProt Q9SQI2: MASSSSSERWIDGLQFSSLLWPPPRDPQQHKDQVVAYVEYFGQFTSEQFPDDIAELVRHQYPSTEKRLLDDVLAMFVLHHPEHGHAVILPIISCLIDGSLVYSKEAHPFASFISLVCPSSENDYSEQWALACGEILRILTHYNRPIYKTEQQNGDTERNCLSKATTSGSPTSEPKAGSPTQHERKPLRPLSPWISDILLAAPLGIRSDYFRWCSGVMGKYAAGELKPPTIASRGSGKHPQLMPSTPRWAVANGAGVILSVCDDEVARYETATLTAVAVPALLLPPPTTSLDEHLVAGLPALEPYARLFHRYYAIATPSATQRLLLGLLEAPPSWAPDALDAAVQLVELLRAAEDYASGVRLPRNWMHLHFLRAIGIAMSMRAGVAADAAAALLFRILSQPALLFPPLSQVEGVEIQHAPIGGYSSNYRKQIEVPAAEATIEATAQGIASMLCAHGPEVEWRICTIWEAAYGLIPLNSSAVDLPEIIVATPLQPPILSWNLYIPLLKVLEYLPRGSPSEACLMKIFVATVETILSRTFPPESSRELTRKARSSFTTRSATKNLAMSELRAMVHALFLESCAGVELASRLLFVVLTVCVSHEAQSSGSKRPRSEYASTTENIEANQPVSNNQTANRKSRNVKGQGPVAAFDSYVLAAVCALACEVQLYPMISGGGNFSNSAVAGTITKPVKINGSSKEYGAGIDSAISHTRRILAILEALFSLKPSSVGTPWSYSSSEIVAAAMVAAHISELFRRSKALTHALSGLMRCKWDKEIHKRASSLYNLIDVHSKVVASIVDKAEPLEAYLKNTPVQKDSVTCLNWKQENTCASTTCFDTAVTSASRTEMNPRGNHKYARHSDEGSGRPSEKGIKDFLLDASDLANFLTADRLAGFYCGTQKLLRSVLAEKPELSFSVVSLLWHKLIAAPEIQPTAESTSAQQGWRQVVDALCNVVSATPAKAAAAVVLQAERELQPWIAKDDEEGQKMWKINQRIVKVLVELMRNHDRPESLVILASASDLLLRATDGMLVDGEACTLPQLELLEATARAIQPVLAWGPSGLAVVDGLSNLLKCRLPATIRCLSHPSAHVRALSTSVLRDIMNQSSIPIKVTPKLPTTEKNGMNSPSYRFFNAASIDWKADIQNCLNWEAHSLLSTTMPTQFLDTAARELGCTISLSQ
UniProt O81223: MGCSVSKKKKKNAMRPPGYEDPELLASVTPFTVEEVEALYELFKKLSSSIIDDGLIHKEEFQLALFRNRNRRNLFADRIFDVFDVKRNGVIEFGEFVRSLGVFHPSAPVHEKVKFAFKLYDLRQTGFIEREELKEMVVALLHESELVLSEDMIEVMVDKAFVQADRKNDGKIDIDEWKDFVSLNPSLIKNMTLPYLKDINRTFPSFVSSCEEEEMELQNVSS

These are yes or no findings as the source states them, for the method shown. In cells and extracts the contact can be indirect.

Turning to “mutant protein SOS3-1 tagged with MYC (MYC-SOS3-1) (from UniProt O81223)”, the binding entry is given as “no binding”.

The values above are taken from doi:10.1101/2021.08.05.455199.
